Data published in PubChem BioAssay AID504834 (National Center for Advancing Translational Sciences (NCATS), 2011).
Hit rate of the full screen: of about 320,000 compounds, about 22,000 (6.9%) were called active. The inconclusive results got no clear call from the source; some entries with a clear call stand among them for comparison. The call rests on the fitted dose curve; in most records, active means well fitted inhibition curve with a large enough effect; inconclusive means small, poorly fitted or top-dose-only effect, or another doubt; inactive means no such curve, though single readings can be large or run the other way. Where the call is inconclusive, the potency comes from a doubtful curve fit.

Test: Primary qHTS for delayed death inhibitors of the malarial parasite plastid, 96 hour incubation
Details: P. falciparum luciferase reporter growth; series mostly up to 28.7 µM; activity change, negative = inhibition: at the top concentration
Method in brief: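 Cell-based qHTS: luciferase-tagged P. falciparum in erythrocytes (2% hematocrit, 0.05% parasitemia final) incubated with compounds for 96 hours, 37 C, 5% CO2; luciferase detection reagent then added and luminescence measured.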
On the % scale 0 is the no-effect control and ±100 the full control effect; potency means the concentration at half of the fitted maximal effect.

SMILES	Potency	activity change, negative = inhibition
Cc1ccc(C)n1-c1ccc(-c2nnc3n2CCCCC3)s1	inconclusive: 18.5 µM [inhibitor, single point]	–
COCCCNc1nc2c(-c3cccc(C)c3)nnn2c2ccccc12	–	inactive: 16.9%
O=C(NC1(C(=O)NC2CCCCC2)CCCCC1)c1ccccn1	inconclusive: 0.657 µM [inhibitor, full curve, poor fit]	–
O=C(NCCc1ccccc1)c1cc(S(=O)(=O)N2CCCC2)ccc1F	inconclusive: 18.5 µM [inhibitor, partial curve, poor fit]	–
Cc1cccc2sc(NC(=O)C3CCN(S(=O)(=O)c4cc([N+](=O)[O-])ccc4Cl)CC3)nc12	inconclusive: 18.5 µM [inhibitor, single point]	–
O=C(CSc1ncccn1)Nc1cc(Cl)ccc1[N+](=O)[O-]	–	inactive: -12.4%
COC(=O)c1cnc(Oc2ccc(NC(=O)NC(=O)c3c(F)cccc3Cl)cc2)cc1C(F)(F)F	inconclusive: 18.5 µM [inhibitor, single point]	–
Cn1c(C(=O)NCCN2CCc3ccccc3C2)cc2c(=O)n(C)c3ccccc3c21	inconclusive: 18.5 µM [inhibitor, single point]	–
Cc1nn(-c2ccccc2)c(C)c1NC(=O)COC(=O)c1ccccc1OC(F)F	inconclusive: 3.7 µM [inhibitor, single point]	–
Cc1ccc(NS(=O)(=O)c2ccc(OCC(=O)N3CCN(C)CC3)cc2)cc1	inconclusive: 8.28 µM [inhibitor, partial curve]	–
CC(=NCc1ccco1)C1=C(O)c2ccccc2C1=O	inconclusive: 4.15 µM [inhibitor, partial curve, poor fit]	–
O=C(Nc1ccncc1)Nc1ccc(F)c(Cl)c1	–	inactive: 20.3%
CCCn1c2ccccc2c2cnn(CC(=O)NC3CCN(Cc4ccccc4)CC3)c(=O)c21	inconclusive: 13.1 µM [inhibitor, single point]	–
COc1ccc([C@]23Cc4cc(C#N)ccc4C(O2)C2=C(CC4(CCCCC4)OC2=O)O3)cc1	active: 0.757 µM	–
O=C(NC12CC3CC(CC(C3)C1)C2)N1CCN(c2ncccn2)CC1	inconclusive: 11.7 µM [inhibitor, single point]	–
Cc1ccc(OCc2cc(C(=O)N(C)Cc3cnn(-c4ccccc4C)c3)no2)cn1	inconclusive: 18.5 µM [inhibitor, single point]	–
NC(=O)C1CCN(C(=O)C2CCN(S(=O)(=O)c3ccccc3)CC2)CC1	inconclusive: 11.7 µM [inhibitor, single point]	–
COc1ccccc1NC(=O)CCN1C(=O)C2C3CCC(C3)C2C1=O (stereo not drawn)	inconclusive: 13.1 µM [inhibitor, single point]	–

4 consecutive entries out of the list so far, quoted:
SMILES	Potency	activity change, negative = inhibition
CCCn1c2ccccc2c2cnn(CC(=O)NC3CCN(Cc4ccccc4)CC3)c(=O)c21	inconclusive: 13.1 µM [inhibitor, single point]	–
COc1ccc([C@]23Cc4cc(C#N)ccc4C(O2)C2=C(CC4(CCCCC4)OC2=O)O3)cc1	active: 0.757 µM	–
O=C(NC12CC3CC(CC(C3)C1)C2)N1CCN(c2ncccn2)CC1	inconclusive: 11.7 µM [inhibitor, single point]	–
Cc1ccc(OCc2cc(C(=O)N(C)Cc3cnn(-c4ccccc4C)c3)no2)cn1	inconclusive: 18.5 µM [inhibitor, single point]	–
